We go through 13 compounds from PubChem BioAssay AID200 (DTP/NCI, 2004).

The assay concerns B6C3F1 mice, B16 melanoma ip, median survival T/C. The assay is described as follows: NCI In Vivo Anticancer Drug Screen. Data for tumor model B16 Melanoma (intraperitoneal) in B6C3F1 mice. Particulars: T/C endpoint: median survival time, higher T/C = longer survival. In a few lines:
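Values are T/C ratios: the measurement in treated animals divided by that in vehicle-treated controls, using survival or tumor size in mice carrying transplantable tumors.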

Where [1] appears, read: dose: 100.0 mg/kg/injection, schedule: Q01DX009 (ip), vehicle: saline + alcohol.
[2] abbreviates: dose: 400.0 mg/kg/injection, schedule: Q01DX009 (ip), vehicle: saline with Tween-80.
The mark [3] stands for this setting: dose: 50.0 mg/kg/injection, schedule: Q01DX009 (ip), vehicle: saline with Tween-80.
Setting [4] is: dose: 25.0 mg/kg/injection, schedule: Q01DX009 (ip), vehicle: saline with Tween-80.
Where [5] appears, read: dose: 100.0 mg/kg/injection, schedule: Q01DX009 (ip), vehicle: saline with Tween-80.

The structures appear in SMILES notation. The list is a part of this screen's results and no random one: it is rich in T/C values a quarter to a half above the control, in often repeated tests (any T/C) and in doses without a T/C. Other doses and runs of a compound stand elsewhere. T/C is the treated group as % of the vehicle group. Some entries give survivors of the animals treated and no T/C: the source files T/C as zero there, which appears to mark a toxic dose or a test without result, not a measured value. Some doses without a T/C left all or most animals alive at the check, yet need not have been tolerated: the source hardly ever lists a survival T/C far under the control, and the zero likely stands for such cases as well. Counts of survivors are from the toxicity check (mostly the fifth day) where no day follows; animals may have died later. Schedule codes are those of the source, taken here to give the interval after Q, in days (D) or hours (H), and the number of doses after X. Some doses were run more than once; the results are listed from low to high. For survival time, this PubChem deposit counts one and a half times the control or more as active, and values a quarter to a half above the control carry no call in these data; other NCI protocols may use other cut-offs. Some T/C values carry the count of animals alive at the toxicity check (mostly the fifth day); where none is given, no animal had died by that day.

Regarding `C[C@@]1(CO)[C@H](O)CC[C@@]2(C)[C@H]1CC[C@H]1C[C@@H]3C[C@@]12CC[C@@]3(O)COC(=O)CN`, the T/C by setting is: (dose: 7.5 mg/kg/injection, schedule: Q01DX009 (ip), vehicle: saline + alcohol) 129 % of control; (dose: 10.0 mg/kg/injection, schedule: Q03HX027 (ip), vehicle: saline + alcohol) 140 % of control; (dose: 10.0 mg/kg/injection, schedule: Q03HX027 (sc), vehicle: saline + alcohol) 126 % of control; (dose: 11.25 mg/kg/injection, schedule: Q03HX024 (ip), vehicle: saline + alcohol) 131 % of control; (dose: 13.5 mg/kg/injection, schedule: Q01DX005 (iv), vehicle: saline + alcohol) 126 % of control; (dose: 15.0 mg/kg/injection, schedule: Q01DX009 (ip), vehicle: saline + alcohol) 132 % of control. Besides, the T/C (dose: 20.0 mg/kg/injection, schedule: Q03HX027 (ip), vehicle: saline + alcohol) was 130 and 147 % of control [9 of 10 alive]; the T/C (dose: 22.5 mg/kg/injection, schedule: Q03HX024 (ip), vehicle: saline + alcohol) is 136 % of control; the T/C (dose: 25.0 mg/kg/injection, schedule: Q01DX009 (ip), vehicle: saline + alcohol) is 127 % of control; the T/C (dose: 30.0 mg/kg/injection, schedule: Q01DX009 (ip), vehicle: saline + alcohol) was 133 % of control; the T/C (dose: 40.0 mg/kg/injection, schedule: Q03HX027 (ip), vehicle: saline + alcohol) is 147 % of control [9 of 10 alive]; the T/C (dose: 50.0 mg/kg/injection, schedule: Q01DX009 (ip), vehicle: saline + alcohol) was 133 and 134 % of control. For the same compound, the T/C was 130 [9 of 10 alive] and 138 % of control (dose: 60.0 mg/kg/injection, schedule: Q01DX009 (ip), vehicle: saline + alcohol); 136 % of control (dose: 75.0 mg/kg/injection, schedule: Q01DX009 (ip), vehicle: saline + alcohol); 128 % of control [9 of 10 alive] under setting [1]; 132 % of control (dose: 113.0 mg/kg/injection, schedule: Q01DX009 (ip), vehicle: saline + alcohol); 128 % of control [7 of 8 alive] (dose: 120.0 mg/kg/injection, schedule: Q01DX009 (oral), vehicle: saline + alcohol). Further, the survivor count reads like this: (dose: 45.0 mg/kg/injection, schedule: Q03HX024 (ip), vehicle: saline + alcohol) 9 of 9; (dose: 67.5 mg/kg/injection, schedule: Q03HX008 (ip), vehicle: saline + alcohol) 3 of 10; (dose: 80.0 mg/kg/injection, schedule: Q03HX027 (ip), vehicle: saline + alcohol) 0 of 10, 3 of 10, 10 of 10; (dose: 90.0 mg/kg/injection, schedule: Q03HX024 (ip), vehicle: saline + alcohol) 0 of 10; under setting [1], 10 of 10; (dose: 108.0 mg/kg/injection, schedule: Q01DX005 (ip), vehicle: saline + alcohol) 6 of 10. Moreover, the survivor count by setting is: (dose: 120.0 mg/kg/injection, schedule: Q01DX009 (ip), vehicle: saline + alcohol) 1 of 8 and 3 of 10; (dose: 135.0 mg/kg/injection, schedule: Q01DX001 (ip), vehicle: saline + alcohol) 4 of 10; (dose: 135.0 mg/kg/injection, schedule: Q03HX008 (ip), vehicle: saline + alcohol) 0 of 10; (dose: 150.0 mg/kg/injection, schedule: Q01DX009 (ip), vehicle: saline + alcohol) 1 of 10; (dose: 180.0 mg/kg/injection, schedule: Q04DX003 (ip), vehicle: saline + alcohol) 1 of 10; (dose: 200.0 mg/kg/injection, schedule: Q01DX009 (ip), vehicle: saline + alcohol) 0 of 10. The survivor count was 0 of 10 (dose: 216.0 mg/kg/injection, schedule: Q01DX005 (ip), vehicle: saline + alcohol); 0 of 10 (dose: 240.0 mg/kg/injection, schedule: Q01DX009 (ip), vehicle: saline + alcohol); 0 of 10 (dose: 270.0 mg/kg/injection, schedule: Q01DX001 (ip), vehicle: saline + alcohol); 0 of 10 (dose: 360.0 mg/kg/injection, schedule: Q04DX003 (ip), vehicle: saline + alcohol); 0 of 10 (dose: 400.0 mg/kg/injection, schedule: Q01DX009 (ip), vehicle: saline + alcohol); 7 of 8 (dose: 480.0 mg/kg/injection, schedule: Q01DX009 (oral), vehicle: saline + alcohol). Moreover, the survivor count (dose: 540.0 mg/kg/injection, schedule: Q01DX001 (ip), vehicle: saline + alcohol) was 0 of 10 and the survivor count (dose: 720.0 mg/kg/injection, schedule: Q04DX003 (ip), vehicle: saline + alcohol) is on record as 0 of 10.

Take `O=C1N[C@@H]2C(=C[C@H](O)[C@@H](O)[C@H]2O)c2cc3c(c(O)c21)OCO3`: the survivor count (dose: 10.0 mg/kg/injection, schedule: Q01DX009 (ip), vehicle: saline with Tween-80) was 6 of 9.

For `CN(C)c1ccc2c(NCCCCCCNc3ccnc4cc(N(C)C)ccc34)ccnc2c1`, the survivor count (dose: 50.0 mg/kg/injection, schedule: Q01DX009 (ip), vehicle: distilled water + alcohol) is reported as 8 of 10.

As to `CCCCCCCCCCCC(=O)NC1CC(O[C@H]2C[C@](O)(C(=O)CO)Cc3c(O)c4c(c(O)c32)C(=O)c2c(OC)cccc2C4=O)OC(C)C1O` (some centres not stated), for the setting “dose: 48.0 mg/kg/injection, schedule: Q01DX009 (ip), vehicle: saline”, the survivor count is recorded as 10 of 10.

Regarding `Cc1cc(NCCCN(C)C)c2ccc3c(ccc4c(NCCCN(C)C)cc(C)nc43)c2n1`, the survivor count by setting is: (dose: 6.25 mg/kg/injection, schedule: Q01DX009 (ip), vehicle: saline) 5 of 10 and 9 of 10; (dose: 12.5 mg/kg/injection, schedule: Q01DX009 (ip), vehicle: saline) 0 of 10; (dose: 25.0 mg/kg/injection, schedule: Q01DX009 (ip), vehicle: saline) 0 of 10; (dose: 50.0 mg/kg/injection, schedule: Q01DX009 (ip), vehicle: saline) 0 of 10; (dose: 100.0 mg/kg/injection, schedule: Q01DX009 (ip), vehicle: saline) 0 of 10.

As for `CCCCCCNc1nc(NCCCCCC)c2[nH]c(NCCCCCC)nc2n1`, the survivor count under setting [2] is reported as 9 of 10.

Regarding `COc1ccc(O)cc1`, the T/C under setting [3] was 130 % of control.

For `CNC(=O)O/N=C(\CN=[N+]=[N-])C(C)(C)C`, the survivor count (dose: 2.0 mg/kg/injection, schedule: Q01DX009 (ip), vehicle: saline) was 4 of 10.

In the case of `CS(=O)(=O)OCCN(CCOS(C)(=O)=O)c1ccc(C=O)cc1`, the survivor count is 10 of 10 under setting [4], 10 of 10 under setting [3] and 10 of 10 under setting [5].

As for `COc1ccccc1N=Nc1cc(S(=O)(=O)O)c2ccccc2c1O`, the survivor count by setting is: under setting [5], 10 of 10; under setting [2], 0 of 10.

With `O/N=C/c1ccccc1O.O/N=C/c1ccccc1O.[Cu]`, the survivor count is, setting by setting: (dose: 6.25 mg/kg/injection, schedule: Q01DX009 (ip), vehicle: saline with Tween-80) 10 of 10; under setting [4], 10 of 10; under setting [3], 1 of 10.

In the case of `CC(C)CCC(=O)c1ccoc1`, under “dose: 4.0 mg/kg/injection, schedule: Q01DX009 (ip), vehicle: saline with Tween-80”, the survivor count is on record as 6 of 10.

Consider `CC(/C=C/C1OC(=O)C=CC1C)=C\C(C)C/C=C/C(C)=C/C(C)C(=O)C(C)C(O)C(C)C/C(C)=C/C(=O)O` (configuration not stated), for which the T/C (dose: 3.2 micrograms/kg/injection, schedule: Q01DX009 (ip), vehicle: saline + alcohol) is 131 % of control and the T/C (dose: 6.3 micrograms/kg/injection, schedule: Q01DX009 (ip), vehicle: saline + alcohol) was 140 % of control. The survivor count is recorded as 10 of 10 (dose: 50.0 micrograms/kg/injection, schedule: Q01DX009 (ip), vehicle: saline + alcohol); 10 of 10 (dose: 100.0 micrograms/kg/injection, schedule: Q01DX009 (ip), vehicle: saline + alcohol); 10 of 10 (dose: 200.0 micrograms/kg/injection, schedule: Q01DX009 (ip), vehicle: saline + alcohol).
